Test results reported in the supplement of paper PMC10849652.
Some of the results follow.

Sequences of proteins named here, by UniProt entry; tags and fusion partners are left off. A change or cut given only in a name is not applied to a line headed by its entry.
UniProt O43491, whole entry, looked up: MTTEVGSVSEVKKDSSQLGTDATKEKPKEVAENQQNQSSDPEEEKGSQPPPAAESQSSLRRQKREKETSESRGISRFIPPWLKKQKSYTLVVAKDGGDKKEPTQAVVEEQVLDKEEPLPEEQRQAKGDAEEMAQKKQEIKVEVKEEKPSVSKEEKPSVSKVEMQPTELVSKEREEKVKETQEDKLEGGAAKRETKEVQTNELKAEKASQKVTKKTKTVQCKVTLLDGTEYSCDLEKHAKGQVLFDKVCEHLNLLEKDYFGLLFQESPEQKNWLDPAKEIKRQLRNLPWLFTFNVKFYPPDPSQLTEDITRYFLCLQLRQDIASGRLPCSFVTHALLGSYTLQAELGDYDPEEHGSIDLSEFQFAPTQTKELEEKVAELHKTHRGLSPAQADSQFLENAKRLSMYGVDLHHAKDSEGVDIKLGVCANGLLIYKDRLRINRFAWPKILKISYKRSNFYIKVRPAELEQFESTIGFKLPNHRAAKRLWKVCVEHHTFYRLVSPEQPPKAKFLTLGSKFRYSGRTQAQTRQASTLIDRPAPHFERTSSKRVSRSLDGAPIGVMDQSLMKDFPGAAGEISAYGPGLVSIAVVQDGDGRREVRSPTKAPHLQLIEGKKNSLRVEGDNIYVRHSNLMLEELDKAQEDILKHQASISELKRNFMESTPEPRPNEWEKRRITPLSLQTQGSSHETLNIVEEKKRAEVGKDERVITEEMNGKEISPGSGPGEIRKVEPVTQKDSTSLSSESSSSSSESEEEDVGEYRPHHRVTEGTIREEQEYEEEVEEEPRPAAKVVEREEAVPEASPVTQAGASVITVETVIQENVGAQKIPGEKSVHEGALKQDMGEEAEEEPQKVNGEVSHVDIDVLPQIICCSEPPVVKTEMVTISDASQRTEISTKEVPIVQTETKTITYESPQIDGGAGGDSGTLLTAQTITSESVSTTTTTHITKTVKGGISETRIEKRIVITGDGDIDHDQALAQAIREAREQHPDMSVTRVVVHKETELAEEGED
UniProt Q96KP1: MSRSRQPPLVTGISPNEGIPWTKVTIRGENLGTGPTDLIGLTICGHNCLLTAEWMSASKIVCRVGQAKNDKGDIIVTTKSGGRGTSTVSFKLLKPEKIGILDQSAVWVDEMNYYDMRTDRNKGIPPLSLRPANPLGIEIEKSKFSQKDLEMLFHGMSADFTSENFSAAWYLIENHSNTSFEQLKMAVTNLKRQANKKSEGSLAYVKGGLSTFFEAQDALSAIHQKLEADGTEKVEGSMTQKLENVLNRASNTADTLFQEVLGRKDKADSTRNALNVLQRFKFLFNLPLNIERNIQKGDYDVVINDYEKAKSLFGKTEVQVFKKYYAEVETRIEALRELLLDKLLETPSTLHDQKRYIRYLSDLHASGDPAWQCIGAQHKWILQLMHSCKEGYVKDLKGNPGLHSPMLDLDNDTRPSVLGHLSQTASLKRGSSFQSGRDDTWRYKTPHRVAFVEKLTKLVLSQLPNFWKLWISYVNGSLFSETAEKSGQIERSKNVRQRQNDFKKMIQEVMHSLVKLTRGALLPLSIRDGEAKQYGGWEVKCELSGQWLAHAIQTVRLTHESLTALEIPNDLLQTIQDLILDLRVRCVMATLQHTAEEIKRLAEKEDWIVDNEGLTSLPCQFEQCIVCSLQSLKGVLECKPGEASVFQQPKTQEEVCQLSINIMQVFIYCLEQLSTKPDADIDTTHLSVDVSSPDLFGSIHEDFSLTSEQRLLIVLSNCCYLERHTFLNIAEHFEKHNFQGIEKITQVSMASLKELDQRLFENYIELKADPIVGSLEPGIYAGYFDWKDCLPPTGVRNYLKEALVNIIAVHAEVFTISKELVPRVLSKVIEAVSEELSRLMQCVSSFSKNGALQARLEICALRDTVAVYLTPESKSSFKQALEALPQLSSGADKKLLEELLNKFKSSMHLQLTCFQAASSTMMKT
UniProt Q9NWS6: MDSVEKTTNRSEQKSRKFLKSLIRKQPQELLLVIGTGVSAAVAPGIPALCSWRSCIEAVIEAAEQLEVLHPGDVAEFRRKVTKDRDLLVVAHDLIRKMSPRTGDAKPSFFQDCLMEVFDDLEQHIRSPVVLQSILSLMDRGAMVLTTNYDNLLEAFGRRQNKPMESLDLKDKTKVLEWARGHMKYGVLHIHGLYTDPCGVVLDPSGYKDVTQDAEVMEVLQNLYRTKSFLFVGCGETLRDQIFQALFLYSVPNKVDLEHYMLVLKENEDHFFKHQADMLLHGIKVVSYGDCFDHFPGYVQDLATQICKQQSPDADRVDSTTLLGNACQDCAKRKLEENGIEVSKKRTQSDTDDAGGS
UniProt P34913, whole entry, looked up: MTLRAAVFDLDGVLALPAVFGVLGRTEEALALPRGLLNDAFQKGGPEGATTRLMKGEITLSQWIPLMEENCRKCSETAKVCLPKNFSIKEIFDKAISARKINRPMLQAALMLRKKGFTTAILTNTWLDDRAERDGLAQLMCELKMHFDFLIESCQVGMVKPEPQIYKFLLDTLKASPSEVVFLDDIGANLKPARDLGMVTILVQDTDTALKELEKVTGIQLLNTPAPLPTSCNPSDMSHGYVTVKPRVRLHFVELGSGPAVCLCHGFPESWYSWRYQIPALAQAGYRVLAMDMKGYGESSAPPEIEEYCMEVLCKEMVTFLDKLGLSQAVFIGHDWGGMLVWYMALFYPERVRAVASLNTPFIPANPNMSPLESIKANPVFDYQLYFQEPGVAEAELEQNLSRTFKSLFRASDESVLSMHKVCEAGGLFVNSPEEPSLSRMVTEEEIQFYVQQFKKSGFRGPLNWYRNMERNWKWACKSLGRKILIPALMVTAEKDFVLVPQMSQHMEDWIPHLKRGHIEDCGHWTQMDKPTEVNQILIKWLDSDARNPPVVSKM
UniProt O75477: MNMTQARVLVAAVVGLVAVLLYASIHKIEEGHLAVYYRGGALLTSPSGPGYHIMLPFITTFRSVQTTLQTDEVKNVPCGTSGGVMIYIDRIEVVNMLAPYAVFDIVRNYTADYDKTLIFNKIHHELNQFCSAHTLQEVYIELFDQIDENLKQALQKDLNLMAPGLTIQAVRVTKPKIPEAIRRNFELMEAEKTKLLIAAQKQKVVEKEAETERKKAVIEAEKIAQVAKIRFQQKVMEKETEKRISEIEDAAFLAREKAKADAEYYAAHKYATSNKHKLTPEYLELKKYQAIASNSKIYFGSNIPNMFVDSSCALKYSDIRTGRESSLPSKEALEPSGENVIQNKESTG
UniProt Q9UBQ6: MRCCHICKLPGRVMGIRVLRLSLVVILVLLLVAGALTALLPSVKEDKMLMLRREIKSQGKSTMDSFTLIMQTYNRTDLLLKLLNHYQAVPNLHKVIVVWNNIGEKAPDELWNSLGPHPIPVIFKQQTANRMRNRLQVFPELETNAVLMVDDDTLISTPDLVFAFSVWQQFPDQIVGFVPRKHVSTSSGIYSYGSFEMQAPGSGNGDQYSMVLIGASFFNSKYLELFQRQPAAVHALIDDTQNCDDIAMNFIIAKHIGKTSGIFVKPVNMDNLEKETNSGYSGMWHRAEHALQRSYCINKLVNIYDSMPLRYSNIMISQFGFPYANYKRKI
UniProt Q13158: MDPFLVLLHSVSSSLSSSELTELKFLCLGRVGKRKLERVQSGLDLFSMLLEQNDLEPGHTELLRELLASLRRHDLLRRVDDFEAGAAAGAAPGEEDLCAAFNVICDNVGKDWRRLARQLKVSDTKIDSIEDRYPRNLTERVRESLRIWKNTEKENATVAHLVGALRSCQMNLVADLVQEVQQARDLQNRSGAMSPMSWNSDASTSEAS
UniProt Q9C073: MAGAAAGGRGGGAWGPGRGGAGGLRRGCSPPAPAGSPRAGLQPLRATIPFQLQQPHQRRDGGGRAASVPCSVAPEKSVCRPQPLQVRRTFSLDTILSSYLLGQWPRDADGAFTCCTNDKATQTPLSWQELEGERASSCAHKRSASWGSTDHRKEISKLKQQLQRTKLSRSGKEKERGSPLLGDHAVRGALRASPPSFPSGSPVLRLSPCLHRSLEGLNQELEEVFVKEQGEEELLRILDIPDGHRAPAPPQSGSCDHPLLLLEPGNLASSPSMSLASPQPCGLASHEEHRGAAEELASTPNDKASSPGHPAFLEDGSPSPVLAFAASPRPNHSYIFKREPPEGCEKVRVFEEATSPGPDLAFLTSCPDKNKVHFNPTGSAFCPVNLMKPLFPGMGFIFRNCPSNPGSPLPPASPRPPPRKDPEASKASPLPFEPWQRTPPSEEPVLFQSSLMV
UniProt Q96A65: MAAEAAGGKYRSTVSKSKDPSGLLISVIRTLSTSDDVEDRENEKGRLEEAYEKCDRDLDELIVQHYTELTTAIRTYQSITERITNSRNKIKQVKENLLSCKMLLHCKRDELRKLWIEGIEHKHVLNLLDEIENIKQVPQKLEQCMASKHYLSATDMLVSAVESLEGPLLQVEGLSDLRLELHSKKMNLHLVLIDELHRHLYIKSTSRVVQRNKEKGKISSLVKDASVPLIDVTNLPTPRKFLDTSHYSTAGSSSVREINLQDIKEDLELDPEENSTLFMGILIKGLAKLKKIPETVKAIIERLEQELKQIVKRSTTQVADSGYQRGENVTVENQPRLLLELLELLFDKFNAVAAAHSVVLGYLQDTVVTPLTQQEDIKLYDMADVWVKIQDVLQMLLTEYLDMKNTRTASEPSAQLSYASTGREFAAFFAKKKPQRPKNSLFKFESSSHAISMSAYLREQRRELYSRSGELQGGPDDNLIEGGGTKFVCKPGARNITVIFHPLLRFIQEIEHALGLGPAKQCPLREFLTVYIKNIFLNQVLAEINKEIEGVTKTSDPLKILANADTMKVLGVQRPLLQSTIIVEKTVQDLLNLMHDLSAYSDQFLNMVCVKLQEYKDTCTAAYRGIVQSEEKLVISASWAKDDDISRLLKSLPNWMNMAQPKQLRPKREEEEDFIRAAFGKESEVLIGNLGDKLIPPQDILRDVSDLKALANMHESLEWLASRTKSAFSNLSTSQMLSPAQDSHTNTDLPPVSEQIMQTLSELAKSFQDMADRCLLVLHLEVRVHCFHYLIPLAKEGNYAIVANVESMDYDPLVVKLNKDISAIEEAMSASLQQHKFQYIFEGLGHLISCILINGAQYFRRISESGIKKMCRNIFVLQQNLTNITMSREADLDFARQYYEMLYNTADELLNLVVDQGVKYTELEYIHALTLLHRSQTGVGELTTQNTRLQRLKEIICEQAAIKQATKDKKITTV
UniProt Q86UK5: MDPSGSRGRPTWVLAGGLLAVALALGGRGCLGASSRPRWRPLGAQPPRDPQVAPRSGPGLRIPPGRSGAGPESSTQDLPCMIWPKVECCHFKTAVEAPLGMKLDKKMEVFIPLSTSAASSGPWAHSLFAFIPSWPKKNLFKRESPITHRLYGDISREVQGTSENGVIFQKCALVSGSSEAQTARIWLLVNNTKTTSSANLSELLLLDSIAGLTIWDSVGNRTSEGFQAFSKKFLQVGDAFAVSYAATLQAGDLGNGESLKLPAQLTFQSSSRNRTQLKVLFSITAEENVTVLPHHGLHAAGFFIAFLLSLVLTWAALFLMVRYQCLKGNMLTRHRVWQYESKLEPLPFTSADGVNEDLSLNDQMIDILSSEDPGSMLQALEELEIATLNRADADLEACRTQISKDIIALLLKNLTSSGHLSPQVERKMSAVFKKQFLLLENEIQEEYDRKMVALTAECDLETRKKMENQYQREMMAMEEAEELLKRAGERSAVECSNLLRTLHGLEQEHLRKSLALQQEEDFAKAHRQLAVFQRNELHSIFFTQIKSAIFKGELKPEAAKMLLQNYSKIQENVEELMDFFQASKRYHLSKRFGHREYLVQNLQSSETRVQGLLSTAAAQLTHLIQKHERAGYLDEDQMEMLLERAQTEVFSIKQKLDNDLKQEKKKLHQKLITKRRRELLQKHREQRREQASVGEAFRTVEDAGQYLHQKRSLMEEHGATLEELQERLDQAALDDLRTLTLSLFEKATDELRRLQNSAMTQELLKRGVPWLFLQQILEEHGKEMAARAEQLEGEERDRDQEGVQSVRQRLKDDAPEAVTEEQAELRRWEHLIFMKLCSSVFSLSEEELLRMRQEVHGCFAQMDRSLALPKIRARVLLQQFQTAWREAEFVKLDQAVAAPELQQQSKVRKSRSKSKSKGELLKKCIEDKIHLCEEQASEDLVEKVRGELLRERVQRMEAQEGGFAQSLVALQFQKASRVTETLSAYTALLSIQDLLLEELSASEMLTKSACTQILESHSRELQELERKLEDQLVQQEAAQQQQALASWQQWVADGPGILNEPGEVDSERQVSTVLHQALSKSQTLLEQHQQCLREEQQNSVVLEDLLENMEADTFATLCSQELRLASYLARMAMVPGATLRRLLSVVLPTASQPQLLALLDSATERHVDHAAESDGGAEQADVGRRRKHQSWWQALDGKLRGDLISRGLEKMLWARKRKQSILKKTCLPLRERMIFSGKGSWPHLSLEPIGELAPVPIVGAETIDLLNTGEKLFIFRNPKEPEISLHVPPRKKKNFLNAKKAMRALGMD

Key:
Assay in all cases: log2 fold change, soluble protein after heating vs DMSO (PISA); higher = thermal stabilisation; K562 cells, 10 uM, 30 min; active = over 0.2 and 3.5 SD of the protein, either way, in both replicates (recomputed)
[1] = compound: CS(=O)(=O)c1ccc(-c2cnc(N)c(C(=O)Nc3ccccc3)n2)cc1
Procedure, shortened: (§1)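 Aliquots of K562 cells (2×10^6 cells/mL) treated with 10 μM compound for 30 min were heated for 3 min over 48°C-58°C. After pooling and extraction in PBS with 0.5% NP-40 at 4°C, soluble protein from a 21,000xg, 90 min spin was quantified by TMTpro 16plex LC-MS/MS with channel sums equalised. Thermal stability is expressed against control samples, from duplicates, as a log2 fold change.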

crizotinib = compound: C[C@@H](Oc1cc(-c2cnn(C3CCNCC3)c2)cnc1N)c1c(Cl)ccc(F)c1Cl [crizotinib]
Procedure, shortened: as §1

[2] = compound: C[C@@H]1COCCN1C2=NC(=NC(=C2)C3(CC3)S(=O)(=O)C)C4=C5C=CNC5=CC=C4
Procedure, shortened: as §1

[3] = compound: C[C@H](C1=CC=C(C=C1)C(=O)NC2=C3C=CNC3=NC=C2)N
Procedure, shortened: as §1

duvelisib = compound: C[C@H](Nc1ncnc2nc[nH]c12)c1cc2cccc(Cl)c2c(=O)n1-c1ccccc1 [duvelisib]
Procedure, shortened: as §1

gandotinib = compound: Cc1cc(Nc2cc(CN3CCOCC3)c3nc(C)c(Cc4ccc(Cl)cc4F)n3n2)n[nH]1 [gandotinib]
Procedure, shortened: as §1

tozasertib = compound: Cc1cc(Nc2cc(N3CCN(C)CC3)nc(Sc3ccc(NC(=O)C4CC4)cc3)n2)n[nH]1 [tozasertib]
Procedure, shortened: as §1

[4] = compound: Cc1cc(SCc2sc(-c3ccc(C(F)(F)F)cc3)nc2C)ccc1OCC(=O)O
Procedure, shortened: as §1

doramapimod = compound: Cc1ccc(-n2nc(C(C)(C)C)cc2NC(=O)Nc2ccc(OCCN3CCOCC3)c3ccccc23)cc1 [doramapimod]
Procedure, shortened: as §1

ispinesib = compound: Cc1ccc(C(=O)N(CCCN)[C@@H](c2nc3cc(Cl)ccc3c(=O)n2Cc2ccccc2)C(C)C)cc1 [ispinesib]
Procedure, shortened: as §1

bafetinib = compound: Cc1ccc(NC(=O)c2ccc(CN3CC[C@H](N(C)C)C3)c(C(F)(F)F)c2)cc1Nc1nccc(-c2cncnc2)n1 [bafetinib]
Procedure, shortened: as §1

[5] = compound: Cc1cccc(CC(=O)N2CCc3c2ccc(-c2cn(C)c4ncnc(N)c24)c3F)n1
Procedure, shortened: as §1

nilotinib = compound: Cc1cn(-c2cc(NC(=O)c3ccc(C)c(Nc4nccc(-c5cccnc5)n4)c3)cc(C(F)(F)F)c2)cn1 [nilotinib]
Procedure, shortened: as §1

[6] = compound: Cc1nc(Nc2n[nH]c3c2CN(C(=O)N[C@H](CN(C)C)c2ccccc2)C3(C)C)c2sccc2n1
Procedure, shortened: as §1

dasatinib = compound: Cc1nc(Nc2ncc(C(=O)Nc3c(C)cccc3Cl)s2)cc(N2CCN(CCO)CC2)n1 [dasatinib]
Procedure, shortened: as §1

[7] = compound: Cc1ncc(-c2ccnc(Nc3ccc(S(C)(=O)=O)cc3)n2)n1C(C)C
Procedure, shortened: as §1

[8] = compound: Cn1cc(-c2ccc3c(c2)CCN3C(=O)Cc2cccc(C(F)(F)F)c2)c2c(N)ncnc21
Procedure, shortened: as §1

[9] = compound: Cn1cc(-c2ccc3nnc(C(F)(F)c4ccc5ncccc5c4)n3n2)cn1
Procedure, shortened: as §1

tipifarnib = compound: Cn1cncc1[C@@](N)(c1ccc(Cl)cc1)c1ccc2c(c1)c(-c1cccc(Cl)c1)cc(=O)n2C [tipifarnib]
Procedure, shortened: as §1

mubritinib = compound: FC(F)(F)c1ccc(/C=C/c2nc(COc3ccc(CCCCn4ccnn4)cc3)co2)cc1 [mubritinib]
Procedure, shortened: as §1

Measured: log2 fold change

ERBIN isoform 8 (UniProt Q96RT1)
inactive: [1] -0.009 | crizotinib 0.011 | [2] 0.038 | [3] -0.023 | duvelisib 0.068 | gandotinib -0.137 | tozasertib -0.049 | [4] 0.034 | doramapimod 0.009 | ispinesib -0.037 | bafetinib 0.042 | [5] 0.231 | nilotinib 0.08 | [6] -0.036 | dasatinib -0.061 | [7] -0.075 | [8] 0.05 | [9] -0.056 | tipifarnib 0.006 | mubritinib 0.069

EPB41L2 (UniProt O43491)
inactive: [1] 0.027 | crizotinib 0.028 | [2] 0.094 | [3] -0.113 | duvelisib 0.011 | gandotinib -0.043 | tozasertib -0.056 | [4] -0.051 | doramapimod -0.011 | ispinesib 0.011 | bafetinib -0.021 | [5] 0.002 | nilotinib 0.055 | [6] -0.067 | dasatinib 0.003 | [7] -0.063 | [8] 0.06 | [9] -0.009 | tipifarnib 0.032 | mubritinib 0.026

ESYT1 isoform 2 (UniProt Q9BSJ8)
inactive: [1] 0.021 | crizotinib -0.134 | [2] -0.076 | [3] 0.069 | gandotinib 0.024 | [4] 0.11 | doramapimod 0.083 | ispinesib -0.265 | bafetinib 0.112 | [5] 0.137 | nilotinib -0.088 | [6] -0.208 | dasatinib -0.147 | [7] 0.022 | [8] -0.059 | [9] -0.06 | tipifarnib 0.007 | mubritinib -0.092

EXOC2 (UniProt Q96KP1)
inactive: [1] 0.006 | crizotinib -0.308 | [2] -0.112 | [3] 0.101 | gandotinib 0.009 | [4] 0.119 | doramapimod 0.06 | bafetinib 0.021 | [5] -0.089 | nilotinib -0.002 | [6] -0.135 | dasatinib -0.301 | [7] 0.028 | [8] -0.011 | [9] -0.081 | tipifarnib -0.066 | mubritinib 0.035
active: ispinesib -0.394

FAM118A (UniProt Q9NWS6)
inactive: [1] -0.028 | crizotinib -0.112 | [2] 0.044 | [3] 0.036 | gandotinib -0.44 | [4] 0.097 | doramapimod -0.02 | ispinesib 0.034 | bafetinib -0.076 | [5] 0 | nilotinib -0.092 | [6] -0.216 | dasatinib -0.314 | [7] -0.039 | [8] -0.019 | [9] 0.135 | tipifarnib -0.128 | mubritinib 0.043

EPHX2 (UniProt P34913)
inactive: [1] 0.036 | crizotinib 0.169 | [2] 0.194 | [3] -0.019 | gandotinib -0.018 | [4] -0.032 | doramapimod -0.016 | ispinesib -0.01 | bafetinib 0.131 | [5] -0.097 | nilotinib 0.152 | [6] -0.029 | dasatinib -0.041 | [7] 0.073 | [8] 0.051 | [9] 0.016 | tipifarnib 0.065 | mubritinib 0.11

2 consecutive records out of the list so far:
ESYT1 isoform 2 (UniProt Q9BSJ8)
inactive: [1] 0.021 | crizotinib -0.134 | [2] -0.076 | [3] 0.069 | gandotinib 0.024 | [4] 0.11 | doramapimod 0.083 | ispinesib -0.265 | bafetinib 0.112 | [5] 0.137 | nilotinib -0.088 | [6] -0.208 | dasatinib -0.147 | [7] 0.022 | [8] -0.059 | [9] -0.06 | tipifarnib 0.007 | mubritinib -0.092

EXOC2 (UniProt Q96KP1)
inactive: [1] 0.006 | crizotinib -0.308 | [2] -0.112 | [3] 0.101 | gandotinib 0.009 | [4] 0.119 | doramapimod 0.06 | bafetinib 0.021 | [5] -0.089 | nilotinib -0.002 | [6] -0.135 | dasatinib -0.301 | [7] 0.028 | [8] -0.011 | [9] -0.081 | tipifarnib -0.066 | mubritinib 0.035
active: ispinesib -0.394

Additional entries

ERLIN1 (UniProt O75477)
inactive: [1] 0.012 | crizotinib -0.039 | [2] -0.038 | [3] 0.099 | gandotinib -0.04 | [4] 0.148 | doramapimod 0.057 | bafetinib 0.041 | [5] 0.094 | nilotinib -0.153 | [6] 0.032 | dasatinib -0.031 | [7] 0.004 | [8] -0.11 | [9] 0.002 | tipifarnib 0.026 | mubritinib -0.053
active: ispinesib -0.27

FAM177A1 isoform 2 (UniProt Q8N128)
inactive: [1] 0.018 | crizotinib -0.109 | [2] 0.059 | [3] -0.063 | gandotinib -0.102 | [4] -0.027 | doramapimod -0.012 | ispinesib -0.082 | bafetinib -0.125 | [5] -0.007 | nilotinib -0.113 | [6] 0.005 | dasatinib -0.098 | [7] -0.044 | [8] 0.038 | [9] -0.005 | tipifarnib -0.01 | mubritinib 0.004

EXTL2 (UniProt Q9UBQ6)
inactive: [1] 0.132 | crizotinib 0.111 | [2] 0.014 | [3] -0.227 | gandotinib 0.068 | [4] -0.046 | doramapimod -0.01 | ispinesib 0.108 | bafetinib -0.041 | [5] 0.021 | nilotinib -0.02 | [6] 0.006 | dasatinib -0.008 | [7] -0.059 | [8] -0.039 | [9] -0.064 | tipifarnib 0.014 | mubritinib 0.029

FADD (UniProt Q13158)
inactive: [1] 0.013 | crizotinib -0.021 | [2] -0.137 | [3] -0.027 | duvelisib -0.097 | tozasertib -0.03 | [4] 0.073 | doramapimod -0.189 | ispinesib -0.075 | bafetinib -0.066 | nilotinib -0.041 | [6] -0.046 | dasatinib -0.343 | [7] 0.022 | [8] 0.05 | [9] -0.048 | tipifarnib -0.089 | mubritinib 0.044

FAM117A (UniProt Q9C073)
inactive: [1] -0.039 | crizotinib -0.166 | [2] -0.013 | [3] -0.132 | gandotinib -0.053 | [4] 0.067 | doramapimod 0.017 | ispinesib 0.024 | bafetinib -0.021 | [5] 0.004 | nilotinib -0.047 | [6] -0.083 | dasatinib -0.046 | [7] -0.018 | [8] 0.016 | [9] 0.032 | tipifarnib 0.039 | mubritinib 0.024

FAM122A (UniProt Q96E09)
inactive: [1] 0.077 | crizotinib -0.032 | [2] -0.267 | [3] -0.042 | gandotinib -0.015 | [4] -0.015 | doramapimod 0.014 | ispinesib 0 | bafetinib -0.096 | [5] -0.185 | nilotinib 0.027 | [6] -0.184 | dasatinib -0.054 | [7] 0.059 | [8] 0.024 | [9] 0.037 | tipifarnib -0.059 | mubritinib 0.009

FADS1, A0A0A0MR51
inactive: [1] 0.096 | crizotinib -0.049 | [2] -0.019 | [3] -0.026 | [4] -0.007 | doramapimod 0 | bafetinib -0.03 | [5] 0.062 | nilotinib 0.004 | [6] -0.005 | dasatinib 0.011 | [7] -0.019 | [9] -0.045 | tipifarnib -0.021 | mubritinib 0.028
active: gandotinib 0.434 | ispinesib -0.252 | [8] 0.253

EXOC5 (UniProt O00471)
inactive: [1] -0.02 | [2] -0.017 | [3] 0.015 | gandotinib -0.129 | [4] 0.101 | doramapimod 0.008 | bafetinib -0.016 | [5] 0.061 | nilotinib -0.109 | [6] -0.258 | dasatinib -0.1 | [7] -0.078 | [8] 0.022 | [9] 0.026 | tipifarnib -0.076 | mubritinib 0.039
active: crizotinib -0.279 | ispinesib -0.342

EXOC4 (UniProt Q96A65)
inactive: [1] 0.003 | crizotinib -0.275 | [2] -0.099 | [3] 0.098 | gandotinib -0.068 | [4] 0.162 | doramapimod 0.016 | ispinesib -0.29 | bafetinib 0.012 | [5] 0.11 | nilotinib -0.068 | [6] -0.155 | dasatinib -0.15 | [7] -0.031 | [8] -0.026 | [9] 0.013 | tipifarnib -0.088 | mubritinib 0.078

FAAP100 (UniProt Q0VG06)
inactive: [1] -0.043 | crizotinib -0.027 | [2] 0.142 | [3] -0.051 | gandotinib -0.096 | [4] -0.077 | doramapimod 0.033 | ispinesib -0.006 | bafetinib 0.201 | [5] 0.043 | nilotinib -0.032 | [6] -0.005 | dasatinib 0.035 | [7] -0.039 | [8] -0.005 | [9] 0.101 | tipifarnib 0.1 | mubritinib 0

EVC2 (UniProt Q86UK5)
inactive: [1] 0.022 | crizotinib -0.061 | [2] -0.244 | [3] -0.209 | gandotinib 0.071 | [4] -0.052 | doramapimod 0 | ispinesib 0.065 | bafetinib -0.08 | [5] 0.023 | nilotinib -0.066 | [6] -0.092 | dasatinib -0.043 | [7] 0.131 | [8] -0.149 | [9] -0.148 | tipifarnib 0.162 | mubritinib -0.053
